This is one part of the list. Further columns of the screen follow, without active or inactive calls. Compounds called inactive in the main read-out are mostly missing here. Words in brackets tell the shape of the fitted curve; partial curves, single points and poor fits give uncertain potencies.
Experiment: qHTS Assay for Modulators of Lamin A Splicing
Settings: HeLa LMNA splicing GFP/RFP minigene ratio, 48 h
Summary of the method: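 Read-out is the ratio of GFP to DsRed2 object intensity, acquired by 488 nm laser-scanning cytometry on HeLa lamin A-EGFP minigene reporter cells. Compound incubation 48 hrs at 37 °C in Opti-MEM with 2% FBS; DMSO 0.5% final.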

[1] = measured here: GFP splicing reporter channel
[2] = measured here: RFP viability control channel

Row | SMILES | AC50 [1] | AC50 [2]
1 | CC(=O)NO | 35.5 µM [falling, single point] | 0.794 µM [rising, single point]
2 | COc1ccccc1C1CC(=O)Nc2cc3c(cc21)OCCO3 (configuration not stated) |  | 0.631 µM [rising, full curve, poor fit]
3 | CCOc1ccccc1/C=N/OCC(=O)NCc1ccc(F)cc1 | 0.178 µM [falling, full curve, poor fit] | 0.0562 µM [falling, full curve]
4 | CCN1C(=O)/C(=C2/Sc3ccc(OC)cc3N2C)SC1=Nc1cccc(O)c1 | 25.1 µM [falling, single point] | 7.94 µM [falling, partial curve]
5 | COc1cc(O)c2c(=O)c(O)c(-c3ccc(O)c(O)c3)oc2c1 | 12.6 µM [rising, partial curve] | 
6 | CN(C)S(=O)(=O)c1ccc(C(=O)Nc2ccnn2C2CCCCC2)cc1 |  | 14.1 µM [rising, partial curve]
7 | COc1ccc(NC(=O)C2CCN(c3nc(C)nc4c3CCC4)CC2)cc1 |  | 11.2 µM [rising, partial curve, poor fit]
8 | Cc1nc(Cc2nnc(SCc3nc(N)nc(Nc4ccccc4C)n3)o2)cs1 |  | 2.51 µM [falling, partial curve, poor fit]
9 | COC(=O)CNC(=S)NC(=O)c1ccc(C(C)(C)C)cc1 | 0.501 µM [falling, full curve, poor fit] | 0.447 µM [falling, full curve, poor fit]
10 | COc1ccccc1CNC(=O)c1ccc2nc(-c3ccccc3)c(-c3ccccc3)nc2c1 | 0.00501 µM [rising, full curve, poor fit] | 17.8 µM [rising, partial curve, poor fit]
11 | COc1ccc(C(NC(=O)/C=C/c2ccco2)c2ccc(OC)c(OC)c2)cc1 (configuration not stated) | 1.12 µM [falling, partial curve] | 0.631 µM [falling, partial curve, poor fit]
12 | Cc1nn(C)c2c1c(C(F)(F)F)cc(=O)n2Cc1cccc(Br)c1 |  | 5.01 µM [falling, partial curve]
13 | O=C(Nc1ccc(OC(F)F)cc1)c1ncc(Cl)c(Cl)c1Cl | 0.562 µM [rising, full curve, poor fit] | 14.1 µM [rising, partial curve]
14 | CC(/C=C/c1ccc2c(c1)OCO2)=N/NC(=O)C1COc2ccccc2O1 (configuration not stated) |  | 12.6 µM [rising, partial curve]
15 | O=C(/C=C/c1cccs1)NC(=S)NNC(=O)Cc1cccs1 |  | 28.2 µM [rising, single point]

Individual results from the entries so far:
Under AC50 [2], `CC(/C=C/c1ccc2c(c1)OCO2)=N/NC(=O)C1COc2ccccc2O1` (configuration not stated) reads 12.6 µM [rising, partial curve]
Under AC50 [2], `COc1ccccc1CNC(=O)c1ccc2nc(-c3ccccc3)c(-c3ccccc3)nc2c1` reads 17.8 µM [rising, partial curve, poor fit]
